Source: paper PMC2646901
These are yes or no findings as the source states them, for the method shown. Some binding calls cover weakened binding; strength is not graded here.

Protein sequences, listed by entry. Tags and fused reporters are not part of them. Residues count along the entry.
UniProt P21730: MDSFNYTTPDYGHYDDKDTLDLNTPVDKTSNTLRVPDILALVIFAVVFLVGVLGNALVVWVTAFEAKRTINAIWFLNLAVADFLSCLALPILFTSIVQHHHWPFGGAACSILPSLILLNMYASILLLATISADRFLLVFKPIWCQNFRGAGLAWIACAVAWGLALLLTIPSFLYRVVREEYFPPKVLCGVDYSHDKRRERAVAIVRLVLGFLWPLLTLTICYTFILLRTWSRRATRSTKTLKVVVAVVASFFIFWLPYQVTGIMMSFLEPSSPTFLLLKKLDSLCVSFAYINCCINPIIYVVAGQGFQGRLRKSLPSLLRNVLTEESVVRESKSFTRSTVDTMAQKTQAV
UniProt Q9P296: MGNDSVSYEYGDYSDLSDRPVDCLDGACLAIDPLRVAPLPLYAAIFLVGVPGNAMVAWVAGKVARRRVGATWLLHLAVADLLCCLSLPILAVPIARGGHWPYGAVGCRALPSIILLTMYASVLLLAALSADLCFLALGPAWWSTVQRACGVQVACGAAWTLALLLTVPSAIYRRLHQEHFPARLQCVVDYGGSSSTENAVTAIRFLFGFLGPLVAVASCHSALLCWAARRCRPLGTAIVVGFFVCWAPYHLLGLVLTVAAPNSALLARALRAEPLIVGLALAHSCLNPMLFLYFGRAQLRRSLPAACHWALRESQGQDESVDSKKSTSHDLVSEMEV
UniProt P01031, residues 678-751: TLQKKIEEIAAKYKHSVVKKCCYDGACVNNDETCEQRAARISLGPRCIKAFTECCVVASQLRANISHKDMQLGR

Tests used:
[1] = molecular target: human C5a receptor (C5aR) (human) (UniProt P21730); experiment: flow cytometry on cells; inhibition of ligand binding: transfected cells co-incubated with rCHIPS(28-149) and His6-C5a (50 nM), His6-C5a des Arg (50 nM) or FITC-formyl peptide (500 nM); 30 min at 4 °C in PBS + 0.1% BSA, 0.2% NaN3; His6 ligands detected with anti-RGSHis6 and anti-mouse IgG-FITC; only the binder purified
[2] = molecular target: C5a-like receptor 2 (C5L2), the second C5a receptor (UniProt Q9P296); experiment: as above

His6-tagged C5a (from UniProt P01031 678-751) (ligand)
binding [1]: binds | binding [2]: binds
